Data on six substances can be found in paper PMC5770545.

Results are given in words; binding and its absence hold for the method and conditions named. In cells and extracts the contact can be indirect. Binding can be weak; no strength is given.

Test [1] deals with T1, KREPA2 (Trypanosoma brucei (endogenous in BF and PF cells)).
T1 sequence: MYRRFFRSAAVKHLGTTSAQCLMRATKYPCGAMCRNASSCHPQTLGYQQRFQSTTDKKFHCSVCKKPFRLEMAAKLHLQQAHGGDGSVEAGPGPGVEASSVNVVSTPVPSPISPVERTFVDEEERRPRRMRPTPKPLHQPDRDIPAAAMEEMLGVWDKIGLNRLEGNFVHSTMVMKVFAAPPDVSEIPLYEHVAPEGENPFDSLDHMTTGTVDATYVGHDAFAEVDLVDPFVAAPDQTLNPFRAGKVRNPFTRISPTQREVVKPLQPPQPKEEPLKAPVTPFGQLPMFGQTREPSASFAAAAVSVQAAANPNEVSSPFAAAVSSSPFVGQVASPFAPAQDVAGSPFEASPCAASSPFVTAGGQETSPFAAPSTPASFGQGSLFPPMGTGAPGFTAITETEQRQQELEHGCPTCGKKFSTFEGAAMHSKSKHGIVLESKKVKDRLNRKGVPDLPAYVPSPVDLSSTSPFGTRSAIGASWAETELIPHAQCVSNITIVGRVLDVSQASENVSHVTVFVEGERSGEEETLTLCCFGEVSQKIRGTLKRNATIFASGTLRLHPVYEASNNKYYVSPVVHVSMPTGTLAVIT
Description: co-IP; PF CN cells: anti-KREPA2 (P1H3-D7) on anti-mouse IgG Dynabeads, cleared lysate of 1 x 10^8 cells in IPP150 (10 mM Tris-HCl pH 8.0, 150 mM NaCl, 0.1% Nonidet P-40) with 1% Triton X-100; Western blot with anti-V5 and antibodies to editosome proteins. A general note: In western blotting, separated proteins are transferred to a membrane and probed.

The target is the same in test [2]. Description: co-IP; BF cells: anti-KREPA2 (P1H3-D7) on anti-mouse IgG Dynabeads, cleared lysate of 1 x 10^8 cells in IPP150 (10 mM Tris-HCl pH 8.0, 150 mM NaCl, 0.1% Nonidet P-40) with 1% Triton X-100; Western blot with anti-V5 and antibodies to editosome proteins.

For KREPA1, the binding result in test [1] and in test [2] was “binds” each time.
As for KREPA3, the binding result in test [1] and in test [2] was “binds” each time.
For “N-terminal 3xV5-tagged KREPB9 G270V (Trypanosoma brucei)”, the binding result in test [1] is listed as “binds”.
In the case of “N-terminal 3xV5-tagged KREPB9, wild type (Trypanosoma brucei)”, the binding entry in test [1] and in test [2] was “binds” each time.
As for “N-terminal 3xV5-tagged KREPB10 G238V (Trypanosoma brucei)”, the binding result in test [1] is reported as “binds”.
As for “N-terminal 3xV5-tagged KREPB10, wild type (Trypanosoma brucei)”, the binding result in test [1] and in test [2] was “binds” each time.
